These are yes or no findings as the source states them, for the method shown. For part of these data: In cells and extracts the contact can be indirect. Some results given as binding are weak or reduced against the parent protein; the word gives no strength.

Chains of the proteins cited; added tags and fusions are not shown. Lines headed by an entry give the natural chain unless they say otherwise; changes in a name come on top. A line that says so, or that is headed by a name, gives the form on record, which may keep a tag or linker.
UniProt Q07812: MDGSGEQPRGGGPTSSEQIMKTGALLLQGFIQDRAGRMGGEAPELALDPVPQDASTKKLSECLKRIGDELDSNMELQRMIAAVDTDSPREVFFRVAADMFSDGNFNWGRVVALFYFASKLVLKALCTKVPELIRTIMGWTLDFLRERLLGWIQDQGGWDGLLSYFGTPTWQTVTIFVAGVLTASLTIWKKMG
GFP-Bax 63–65 A (Q07812, form named): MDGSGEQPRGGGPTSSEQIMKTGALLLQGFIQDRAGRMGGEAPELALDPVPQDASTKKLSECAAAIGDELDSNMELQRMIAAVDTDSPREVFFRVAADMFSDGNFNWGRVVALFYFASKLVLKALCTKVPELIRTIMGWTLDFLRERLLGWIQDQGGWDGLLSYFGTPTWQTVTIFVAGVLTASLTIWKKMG

The target in experiment [1] is nesprin-2G (endogenous in human U2OS and HCT116 cells) (human (endogenous in U2OS and HCT116)) (UniProt Q8WXH0). As to the kind of experiment: proximity ligation; Duolink PLA in Bax/Bak DKO U2OS and HCT116 cells transiently transfected with GFP or GFP-Bax; transfected Bax against endogenous nesprin-2G.
In experiment [2] the target is nesprin-2-Giant (mouse (endogenous in MEFs)) (UniProt Q6ZWQ0). As to the kind of experiment: proximity ligation; Duolink PLA in fixed Bax/Bak DKO MEFs transiently transfected, with Q-VD-OPH; anti-Bax 6A7 (GFP-Bax, FLAG-Bax) or anti-His (His-Bax) with anti-nesprin-2G or pan anti-nesprin-2 K2 Ab; dots normalised to cell size, relative to control-transfected cells.
Experiment [3] concerns the target GB-mini-nesprin-2G (UniProt Q6ZWQ0). As to the kind of experiment: dimerization-dependent fluorescent protein exchange (ddFPX); live Bax/Bak DKO U2OS cells transfected with RA-Bax, GB-mini-nesprin-2G and mito-BFP, untreated or with 20 µM Q-VD-OPH; confocal imaging 24 h after transfection, 37 °C.
Experiment [4] deals with nesprin-2 (multiple isoforms, detected by pan anti-nesprin-2 antibodies) (mouse (endogenous in MEFs)) (UniProt Q6ZWQ0). As to the kind of experiment: proximity ligation; Duolink PLA in fixed Bax/Bak DKO MEFs transiently transfected, with Q-VD-OPH; anti-Bax 6A7 (GFP-Bax, FLAG-Bax) or anti-His (His-Bax) with anti-nesprin-2G or pan anti-nesprin-2 K2 Ab; dots normalised to cell size, relative to control-transfected cells.

For experiment [5] the target is unchanged. As to the kind of experiment: proximity ligation; Duolink PLA in fixed Bax/Bak C16 DKO MEFs; Bax induced with doxycycline 24 h, then untreated or 25 µM cisplatin (24 h) or 100 nM staurosporine (17 h) with Q-VD-OPH; anti-Bax 6A7 with anti-nesprin-2 MBS or anti-nesprin-2G Ab.
The target in experiment [6] is nesprin-2-Giant (mouse (endogenous in MEFs)) (UniProt Q6ZWQ0). The description is as above.
The target in experiment [7] is nesprin-2 (multiple isoforms, detected by pan anti-nesprin-2 antibodies) (mouse (endogenous in MEFs)) (UniProt Q6ZWQ0). As to the kind of experiment: co-IP; C16 DKO MEF lysates (20 mM Tris pH 7.5, 5 mM EDTA, 5 mM EGTA, 100 mM NaCl, 1% CHAPS); IP with pan anti-nesprin-2 Ab (Santa Cruz) on anti-rabbit IgG-agarose, 18 h at 4 °C; blot with anti-HA; cells untreated, doxycycline, or doxycycline then 25 µM cisplatin with Q-VD-OPH.

The target of experiment [8] is GFP-mini-nesprin-2G (UniProt Q6ZWQ0). As to the kind of experiment: proximity ligation; Duolink PLA in fixed Bax/Bak DKO MEFs transiently transfected, with Q-VD-OPH; anti-Bax 6A7 (GFP-Bax, FLAG-Bax) or anti-His (His-Bax) with anti-nesprin-2G or pan anti-nesprin-2 K2 Ab; dots normalised to cell size, relative to control-transfected cells.

Take GFP-Bax (from UniProt Q07812 1-192): the binding entry in experiment [1] and in experiment [2] was “binds” each time.

Turning to “GFP-Bax L63E (from UniProt Q07812 1-192)”, the binding entry in experiment [2] is on record as “binds”.

Consider RA-Bax (from UniProt Q07812 1-192), for which the binding entry in experiment [3] was “binds”.

His-Bax (from UniProt Q07812 2-192): the binding entry in experiment [4] and in experiment [2] was “binds” throughout.

With “GFP-Bax S184V (from UniProt Q07812 1-192)”, the binding entry in experiment [2] was “binds”.

HA-Bax (from UniProt Q07812 1-192): the binding result in experiment [5], in experiment [6] and in experiment [7] was “binds” each time.

FLAG-Bax (from UniProt Q07812 1-192): the binding entry in experiment [8] was “binds”.

Turning to “GFP-Bax 63–65 A (from UniProt Q07812 1-192)”, the binding result in experiment [2] was “binds”.
